Laboratory results published in the odorant receptor screen of Mainland et al. (2015).
“And” between values parts separate entries of the source, which are not always exact repeats. Equal entries are not always repeated. This is one part of the list. Each value is one well over the wells without odorant, computed here; the data are noisy.

How the values were obtained:
Experiment in all cases: odorant receptor activation (CRE luciferase / Renilla) (fold of no-odor wells); higher = more activation
Details in all cases: 100 µM
OR5M1 S282T clone 1208 = tested on: OR5M1 S282T clone 1208
OR5M10 V69L clone 1125 = tested on: OR5M10 V69L clone 1125
OR5M11 clone 1236 = tested on: OR5M11 clone 1236
OR5M8 clone 1523 = tested on: OR5M8 clone 1523
OR5M9 clone 1194 = tested on: OR5M9 clone 1194
OR5P2 clone 1185 = tested on: OR5P2 clone 1185
OR5P3 clone 1115 = tested on: OR5P3 clone 1115
OR5R1 clone 1162 = tested on: OR5R1 clone 1162
OR5T1 clone 1249 = tested on: OR5T1 clone 1249
OR5T1 clone 1399 = tested on: OR5T1 clone 1399
OR5T2 clone 1313 = tested on: OR5T2 clone 1313
OR5T2 clone 1428 = tested on: OR5T2 clone 1428
OR5T3 clone 1343 = tested on: OR5T3 clone 1343
OR5V1 clone 1070 = tested on: OR5V1 clone 1070
OR6A2 clone 1489 = tested on: OR6A2 clone 1489
OR6B1 R143C clone 1181 = tested on: OR6B1 R143C clone 1181
OR6B2 R122C clone 1444 = tested on: OR6B2 R122C clone 1444
OR6B3 R261W clone 1445 = tested on: OR6B3 R261W clone 1445
[1] = tested on: OR6C1 V74I/C130Y/L161F/H165D/V246I/R291K clone 1442
OR6C2 clone 1413 = tested on: OR6C2 clone 1413

| SMILES | odorant receptor activation (OR5M1 S282T clone 1208) | odorant receptor activation (OR5M10 V69L clone 1125) | odorant receptor activation (OR5M11 clone 1236) | odorant receptor activation (OR5M8 clone 1523) | odorant receptor activation (OR5M9 clone 1194) | odorant receptor activation (OR5P2 clone 1185) | odorant receptor activation (OR5P3 clone 1115) | odorant receptor activation (OR5R1 clone 1162) | odorant receptor activation (OR5T1 clone 1249) | odorant receptor activation (OR5T1 clone 1399) | odorant receptor activation (OR5T2 clone 1313) | odorant receptor activation (OR5T2 clone 1428) | odorant receptor activation (OR5T3 clone 1343) | odorant receptor activation (OR5V1 clone 1070) | odorant receptor activation (OR6A2 clone 1489) | odorant receptor activation (OR6B1 R143C clone 1181) | odorant receptor activation (OR6B2 R122C clone 1444) | odorant receptor activation (OR6B3 R261W clone 1445) | odorant receptor activation [1] | odorant receptor activation (OR6C2 clone 1413) |
| --- | --- | --- | --- | --- | --- | --- | --- | --- | --- | --- | --- | --- | --- | --- | --- | --- | --- | --- | --- | --- |
| CS [methanethiol] | 0.869 | 0.768 | 0.94 | 0.828 | 0.991 | 1.16 | 1.31 | 0.746 | 0.833 | 0.817 | 0.861 | 0.937 | 0.829 | 1.12 | 0.937 | 0.734 | 0.743 | 0.915 | 1.16 | 0.857 |
| CCC(C)=O [2-butanone] | 0.876 | 0.913 | 1.01 | 1.17 | 1.05 | 0.78 | 4.62 | 0.953 | 0.968 | 1.52 | 1.12 | 1.02 | 0.839 | 2.4 | 0.92 | 0.858 | 1.05 | 0.675 | 1.36 | 1.05 |
| CCCCOC(C)=O [butyl acetate] | 1.12 | 0.875 | 0.623 | 1.18 | 1.04 | 1.1 | 1.03 | 1.27 | 0.863 | 0.193 | 0.912 | 0.223 | 0.852 | 1.26 | 0.885 | 0.884 | 0.346 | 0.356 | 0.141 | 0.215 |
| CCOc1cc(C=O)ccc1O [ethyl vanillin] | 1.15 and 0.786 | 1.25 | 0.779 | 0.804 and 2.28 and 0.906 | 1.24 and 1 | 1.05 and 1.09 | 0.964 and 1.27 | 0.955 and 1.27 | 0.527 and 1.17 | 0.869 and 1.02 | 0.902 and 1.15 | 0.893 and 1.36 | 1.91 and 0.811 | 1.05 and 1.09 | 1.28 and 2.25 and 1.07 | 1.65 and 1.45 | 1.06 and 1.1 | 1.31 and 1.43 | 1.27 and 1.08 | 0.87 and 1 |
